No constants are given. Whether binding was seen depends on the method and setting. Some results given as binding are weak or reduced against the parent protein; the word gives no strength. Tags and fused reporters may be left off the sequences shown.

Amino acid sequences for entries named in this document (tags omitted). Residues count along the entry.
UniProt P15923, residues 477-654: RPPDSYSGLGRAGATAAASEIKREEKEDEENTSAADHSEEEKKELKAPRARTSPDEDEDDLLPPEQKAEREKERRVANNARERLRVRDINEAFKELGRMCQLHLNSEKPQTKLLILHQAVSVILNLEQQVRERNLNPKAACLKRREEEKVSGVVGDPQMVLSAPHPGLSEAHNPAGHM

This test concerns the target LexA-E12477-654 (amino acids 477 to 654 of human E12 fused to LexA) (human) (UniProt P15923). As to the kind of experiment: yeast interaction trap screen of a rat aorta cDNA library with the LexA-E12477-654 bait.

B1: Id3 (clone of the rat aorta cDNA library, activation-domain fusion) (protein, UniProt P41138 1-119, looked up, not shown: large carriers)
chain: MKALSPVRGCYEAVCCLSERSLAIARGRGKSPSAEEPLSLLDDMNHCYSRLRELVPGVPRGTQLSQVEILQRVIDYILDLQVVLAEPAPGPPDGPHLPIQTAELTPELVISKDKRSFCH
Regarding B1, the binding result is recorded as “binds”.

B2: Id1 (clone of the rat aorta cDNA library, activation-domain fusion) (protein, UniProt P41135 1-164, looked up, not shown: large carriers)
chain: MKVASSSAAATAGPSCSLKAGRTAGEVVLGLSEQSVAISRCAGTRLPALLDEQQVNVLLYDMNGCYSRLKELVPTLPQNRKVSKVEILQHVIDYIRDLQLELNSESEVATAGGRGLPVRAPLSTLNGEISALAAEVRSESEYYIILLWETKATGGGCPPYFSGA
Take B2: the binding result was “binds”.

The values above are taken from US20020128189A1, “Ubiquitination of the transcription factor E2A” (President and Fellows of Harvard College, a Massachusetts …, priority 1996, published 2002).
